Article PMC7819943, “Rice protein-binding microarrays: a tool to detect cis-acting elements near promoter regions in rice”
Some of the results follow.

Amino acid sequences for entries named in this document (tags omitted).
UniProt Q0JBA9, entry or part of it: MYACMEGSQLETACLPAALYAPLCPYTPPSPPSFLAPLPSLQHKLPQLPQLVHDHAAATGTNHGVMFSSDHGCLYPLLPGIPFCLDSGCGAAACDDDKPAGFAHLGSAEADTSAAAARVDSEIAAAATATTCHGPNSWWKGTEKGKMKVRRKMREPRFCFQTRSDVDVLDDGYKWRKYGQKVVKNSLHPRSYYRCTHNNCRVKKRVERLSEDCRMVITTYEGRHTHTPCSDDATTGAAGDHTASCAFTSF

Each sequence was assayed against OsWRKY34 (Oryza sativa, UniProt Q0JBA9 1-250) (assay: protein-binding microarray (RPBM); PBS, 2% BSA, 51.3 ng/ul salmon testes DNA, 50 uM zinc acetate, 200 nM TF, 25 C, 1 h; high values mean tight binding). Details: protein: recombinant; tags: N-terminal polyhistidine and DsRed monomer fusion (pET32a); label: CyDye5-dUTP incorporated in the synthesized complementary strand; 3' TTTTT single-stranded linker to array surface; dsDNA, one strand shown.
Summary of the method: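 The binding signal is fluorescence intensity per feature, in arbitrary units, read on an Axon 4000B scanner. Polyhistidine- and DsRed-tagged transcription factors (N-terminal fusions) from E. coli BL21-CodonPlus were purified on Ni–NTA and applied at 200 nM for 1 h at 25 °C to a double-stranded, BSA-blocked custom Agilent array in buffer with 50 µM zinc acetate.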

Sequence | binding signal
GCCCCTGTCCTTTCCGTTTGATTTTAGAGTTGATTTTTTACGGAGTCACCTAGTGCAG | 10100 fluorescence intensity (a.u.)
GCTTTGAGCTAAACTAATCTGTTACCCTTTGCAACTACAGCGGAGTCACCTAGTGCAG | 8030 fluorescence intensity (a.u.)
TCATCAGCTCCGGCTAACTCCTTTCCTTTCTTTGTTTTTTCGGAGTCACCTAGTGCAG | 12900 fluorescence intensity (a.u.)
GGGTTGTGGGATGGACTTCTCTGTTTGGGCTACCGATCTTCGGAGTCACCTAGTGCAG | 13500 fluorescence intensity (a.u.)
ATATATTTTCTCCCTAGAACTATTTCTCTTCTCTTTATATCGGAGTCACCTAGTGCAG | 8500 fluorescence intensity (a.u.)
ATCGTTTTTTTTCCGCTGCTGCTGCTTTTGTTTCGGTGTGCGGAGTCACCTAGTGCAG | 10900 fluorescence intensity (a.u.)
CATACACACACAATTTTTCAGTCATATCATCTTCAATTTCCGGAGTCACCTAGTGCAG | 9490 fluorescence intensity (a.u.)
TTGTCATTTATTTTGCTAGTTATGTCACATTCTAAATTGACGGAGTCACCTAGTGCAG | 9890 fluorescence intensity (a.u.)
GAGTACATCCGTAGCTGCCAGCACCCACTGCCCAATGAGACGGAGTCACCTAGTGCAG | 8660 fluorescence intensity (a.u.)
ACATCACAGCCTCAGAGAATGGGCAGCACACATTGATCATCGGAGTCACCTAGTGCAG | 8170 fluorescence intensity (a.u.)
GTAGATGAGCAATCCAATGTGTACCTGTGTTGTCTGTTGACGGAGTCACCTAGTGCAG | 9860 fluorescence intensity (a.u.)
GAGTTTCATTCCTGTCCAAACTCTTGACCTTGCCTGACCCCGGAGTCACCTAGTGCAG | 9190 fluorescence intensity (a.u.)
CGACATCCTTTATCTTATCCATCCATCCCACACTGCCACACGGAGTCACCTAGTGCAG | 8750 fluorescence intensity (a.u.)
CGTTGACTTTTTCTCACATGTTTGACCATTCGTCTTATTCCGGAGTCACCTAGTGCAG | 31500 fluorescence intensity (a.u.)
TTCTTCGGTGGTGGTGGTGGTGGGATGGAAGAGGAGGAAGCGGAGTCACCTAGTGCAG | 25800 fluorescence intensity (a.u.)
GTGTGGATGGTTAGGGGAGGGTTATGTGGAGGGTCTTGTCCGGAGTCACCTAGTGCAG | 14300 fluorescence intensity (a.u.)
CTGCATTCCTCCTCCCTCCGCCTCTCGCCGTCGCCGGCGCCGGAGTCACCTAGTGCAG | 8170 fluorescence intensity (a.u.)
TCCCCTATCTAGAATTATTCACTTTTATGCTTCTATTGTTCGGAGTCACCTAGTGCAG | 8500 fluorescence intensity (a.u.)
TCTAATCTCATCCGTCCGCTGTACACCGTAGCTCTATCTCCGGAGTCACCTAGTGCAG | 11200 fluorescence intensity (a.u.)
TTGGCTGGAGCTACCCGAAATCATCCTATTTCGTTTTTTTCGGAGTCACCTAGTGCAG | 11000 fluorescence intensity (a.u.)
CCTGCTCGCGGTTGCCTGTGCGTTCGTCTCGCGATTTCTCCGGAGTCACCTAGTGCAG | 11900 fluorescence intensity (a.u.)

Sequence | binding signal
ACTTAGCTAGTGTCTTATTTTCCTTTTTTATTTTTTTCAACGGAGTCACCTAGTGCAG | 9140 fluorescence intensity (a.u.)
TTTTCGCTGCATGCTGCTTGTCCTGCAAAGTCTCTCGCTTCGGAGTCACCTAGTGCAG | 8940 fluorescence intensity (a.u.)
GCCACTTGCTCCACCCAACGCGCGAGTCTGTGTGCCGCCGCGGAGTCACCTAGTGCAG | 9420 fluorescence intensity (a.u.)
TGCTGCTGCTGTTGTTCGTGTATTGCTCCATCTGTGCACGCGGAGTCACCTAGTGCAG | 9920 fluorescence intensity (a.u.)
TTGTCTGGTATTGCTACTTTACTTCTCAGTGTTGTGTAATCGGAGTCACCTAGTGCAG | 8100 fluorescence intensity (a.u.)
TTTCCCCGACCAAATCCACGCAAAAACCCTTTCGCATCTACGGAGTCACCTAGTGCAG | 8780 fluorescence intensity (a.u.)
TCAATCAACGGCTACTTGTATGTAATCTCCACGCATTCCACGGAGTCACCTAGTGCAG | 8630 fluorescence intensity (a.u.)
AAGCTTCATCTCCTCCACGACGAACACCTTGTTCATCCTCCGGAGTCACCTAGTGCAG | 8730 fluorescence intensity (a.u.)
ATAATTTACTGCTACTGACTATATGTACTACCTCTTGCCTCGGAGTCACCTAGTGCAG | 9260 fluorescence intensity (a.u.)
CAGCAGCATCCAACCACGACCACAACCACAGAGCAGATTACGGAGTCACCTAGTGCAG | 8170 fluorescence intensity (a.u.)
CTCAAGCTTTTAGTTTGGTGTGTTTATTCTCTTCCCATTTCGGAGTCACCTAGTGCAG | 8550 fluorescence intensity (a.u.)
ATCCCAATCCATGATCCAGCCATTCATCATCTGCATATATCGGAGTCACCTAGTGCAG | 9790 fluorescence intensity (a.u.)
GCGGCGGCGGGGCGGCGTCGGGGAGGGAGGAGGAGCAGTGCGGAGTCACCTAGTGCAG | 10700 fluorescence intensity (a.u.)
CTTTGCATTGCATCTCAGTGTTCTTCCATTCTTTCCAGAGCGGAGTCACCTAGTGCAG | 10800 fluorescence intensity (a.u.)
AGCACTACTGCACTAGTACTGCAGTAGTATGTCGTTCTTCCGGAGTCACCTAGTGCAG | 8500 fluorescence intensity (a.u.)
GAACTTCCAGATTGGGTGGGGCAGCTCAAGCATGTACGGGCGGAGTCACCTAGTGCAG | 9580 fluorescence intensity (a.u.)
CATCTTGTAATCATGCACTACTGCAACACACAGAACACTCCGGAGTCACCTAGTGCAG | 9380 fluorescence intensity (a.u.)
GACGCATGCCTATTCTAGTGCTCCACTGCCACTATCTTTACGGAGTCACCTAGTGCAG | 8090 fluorescence intensity (a.u.)
TTTAGGGGTGTTTGGTTGAGGGGTGAGTGGGATGGGTTGGCGGAGTCACCTAGTGCAG | 10300 fluorescence intensity (a.u.)
ACCATATGCCGCCGGCTAGGTTTAATCACTGCATCTCCTGCGGAGTCACCTAGTGCAG | 8910 fluorescence intensity (a.u.)
CACCAAACATTTTCCTATGCGAGCCCCATCACTAAAATTACGGAGTCACCTAGTGCAG | 10500 fluorescence intensity (a.u.)

An excerpt of these results, as a markdown table.

| Sequence | binding signal |
| --- | --- |
| TTTTCGCTGCATGCTGCTTGTCCTGCAAAGTCTCTCGCTTCGGAGTCACCTAGTGCAG | 8940 fluorescence intensity (a.u.) |
| CATCTTGTAATCATGCACTACTGCAACACACAGAACACTCCGGAGTCACCTAGTGCAG | 9380 fluorescence intensity (a.u.) |
